Experimental data reported in US4368329A, “Process of preparing thiopyrylium sensitizing dyes” (Minnesota Mining and Manufacturing Company, priority 1981, dated 1983).

Tests used:
[1] = Photoconduction enhancement by dye in polycarbonate film with photoconductor 5-(p-diethylaminophenyl)-3-(p-diethylaminostyryl)-1-phenyl-2-pyrazoline; conditions: Examples 50-60, no dye: 6.0 sec
[2] = Photoconduction enhancement by dye in polycarbonate film with photoconductor 1,5-diphenyl-3-styryl-2-pyrazoline (corona charge, Stati-Tester); conditions: for Time to Vo/2: Examples 36-49, no dye: 43 sec; for Initial Voltage: Table 3, Examples 32-35, 0.01 g dye per 10 ml; for t1/2V (time for the initial potential to drop to half): Table 3, Examples 32-35, no dye: 43 sec

Compound	Time to Vo/2 [1]	Time to Vo/2 [2]	Initial Voltage [2]	t1/2V (time for the initial potential to drop to half) [2]
CCN(Cc1ccccc1)c1ccc(-c2cc(-c3ccccc3)cc(-c3ccccc3)[s+]2)cc1 [Example 8]	1.0 s			
CN(C)c1ccc(-c2cc(-c3ccccc3)cc(-c3ccccc3)[s+]2)cc1 [Example 5]	1.2 s	0.7 s		
Cc1cc(-c2cc(-c3ccccc3)cc(-c3ccccc3)[s+]2)cc(C)c1N [Example 17]	1.2 s	1.0 s		
Nc1ccc(-c2cc(-c3ccccc3)cc(-c3ccccc3)[s+]2)cc1 [Example 2]	1.2 s	0.8 s	+610 V	0.8 s
Nc1ccc(-c2cc(-c3ccccc3)cc(-c3ccccc3)[s+]2)cc1N [Example 29]		11.2 s		
COc1cc(-c2cc(-c3ccccc3)cc(-c3ccccc3)[s+]2)c(OC)cc1N [Example 25]	1.8 s			
Nc1ccc(-c2cc(-c3ccccc3)cc(-c3ccccc3)[s+]2)c(Cl)c1 [Example 27]		5.4 s		
COc1cc(-c2cc(-c3ccccc3)cc(-c3ccccc3)[s+]2)ccc1N [Example 21]	1.2 s			
Cc1cc(-c2cc(-c3ccccc3)cc(-c3ccccc3)[s+]2)ccc1N [Example 12]		1.0 s		
CNc1ccc(-c2cc(-c3ccccc3)cc(-c3ccccc3)[s+]2)cc1 [Example 4]	1.3 s	0.9 s	+555 V	0.9 s
Cc1cc(N)ccc1-c1cc(-c2ccccc2)cc(-c2ccccc2)[s+]1 [Example 15]		1.0 s	+625 V	1.0 s
Cc1cc(N)ccc1-c1cc(-c2ccccc2)cc(-c2ccccc2)[s+]1 [Example 14]		0.9 s		
COc1cc(N)ccc1-c1cc(-c2ccccc2)cc(-c2ccccc2)[s+]1 [Example 23]	1.1 s			
c1ccc(CN(Cc2ccccc2)c2ccc(-c3cc(-c4ccccc4)cc(-c4ccccc4)[s+]3)cc2)cc1 [Example 11]		1.1 s		
CCc1cc(-c2cc(-c3ccccc3)cc(-c3ccccc3)[s+]2)cc(CC)c1N [Example 18]	1.5 s	0.3 s		
CCN(CC)c1ccc(-c2cc(-c3ccccc3)cc(-c3ccccc3)[s+]2)cc1 [Example 7]	1.4 s	1.6 s		
Cc1cc(N(C)C)ccc1-c1cc(-c2ccccc2)cc(-c2ccccc2)[s+]1 [Example 16]		1.0 s		
